According to PubChem BioAssay AID2685 (National Center for Advancing Translational Sciences (NCATS), 2010):
The list shows a part of the results. These are further read-outs of the screen, such as a control signal, another cell line or another target. No call is given for them. Most of these compounds were active or inconclusive in the main read-out, so they are no random draw. Words in brackets tell the shape of the fitted curve; partial curves, single points and poor fits give uncertain potencies.

Assay: qHTS Assay for Lipid Storage Modulators in Drosophila S3 Cells;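 on cell number change: cells counted by Cell Tracker Red CMTPX staining in the red channel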
Details: BODIPY lipid droplet fluorescence, 18-24 h; for cell number change: measured here: cell count max response, cells fed with added oleic acid
How it was run: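 Drosophila S3 cells got compounds at several concentrations plus oleic acid (400 uM solution). Laser-scanning cytometry with 488 nm excitation read lipid droplets at 500-530 nm and cells at 575-640 nm. Percent activity was relative to 20 uM Triacsin C.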

[1] = measured here: cell number channel AC50, cells fed with added oleic acid
[2] = measured here: lipid fluorescence (Fed channel) AC50, cells fed with added oleic acid

SMILES	AC50 [1]	AC50 [2]	cell number change
COC(=O)c1cc(=O)[nH]c(SCc2cccc(C)c2)n1	0.58 µM [rising, full curve]	4.11 µM [rising, full curve, poor fit]	–
CC(C)C(=O)NC(NC(=O)C(C)C)c1ccc([N+](=O)[O-])cc1	–	16.4 µM [falling, single point]	1.12%
COc1ccc(CN2CCCC(C(=O)N3CCCCC3)C2)cc1 (stereo not drawn)	29.1 µM [rising, single point]	–	51.4%
COc1cccc(N2CC(C(=O)Nc3nnc(SCCN4CCOCC4)s3)CC2=O)c1 (stereo not drawn)	2.82 µM [rising, partial curve, poor fit]	12.6 µM [rising, partial curve, poor fit]	37%
Cc1cc2c(cc1C)[n+](C)cn2CC(O)COCc1ccccc1 (stereo not drawn)	–	10.3 µM [falling, partial curve, poor fit]	-58.1%
Cc1ccc(C(=O)Nc2ccc3c(c2)OCO3)cc1Cl	0.13 µM [rising, full curve, poor fit]	6.51 µM [rising, single point]	30.5%
CCOC(=O)Cc1ncccc1C(=O)Nc1ccc(OC)cc1	–	–	-1.04%
Cc1cccc(NS(=O)(=O)c2cccc(C(=O)NCCCN3CCOCC3)c2)c1	29.1 µM [rising, single point]	6.51 µM [falling, partial curve]	66.3%
Cc1cc(S(=O)(=O)N(Cc2ccccc2Cl)c2ccc3c(c2)CCC3)ccc1-n1cnnn1	32.6 µM [rising, single point]	–	35.5%
O=C(CCC1CCCN(C(=O)c2cccc(F)c2)C1)N1CCN(c2ccccn2)CC1 (stereo not drawn)	–	0.13 µM [rising, full curve, poor fit]	-14.8%
Cc1nn(C)cc1/C=C(/C#N)C(N)=O	–	–	-29.1%
CC(C)C(=O)Nc1ccc(C(=O)Nc2ccc(S(=O)(=O)N3CCOCC3)cc2)cc1	–	18.4 µM [falling, partial curve]	-31.2%
COc1ccccc1C/C(N)=N/OC(=O)c1cccs1	0.731 µM [falling, full curve, poor fit]	0.731 µM [falling, full curve]	-33.8%
CC12CCC(=O)N1C(C(=O)N1CCN(S(=O)(=O)c3ccccc3F)CC1)CS2 (stereo not drawn)	–	16.4 µM [falling, single point]	10.3%
O=C1CC(N(Cc2ccc3c(c2)OCO3)C(=O)Nc2ccc(F)cc2)C(=O)N1c1ccccc1 (stereo not drawn)	–	–	0.331%
O=C(CN1C(=O)NC2(CCCCC2)C1=O)NCc1cccs1	3.66 µM [falling, full curve]	0.0517 µM [falling, full curve, poor fit]	-31.7%
COc1ccc(C(=O)c2coc3ccc(O)cc23)cc1	9.2 µM [falling, partial curve]	–	-36.1%
Cc1ccc(-n2c3nc(=O)[nH]c(=O)c-3cc3cc([N+](=O)[O-])ccc32)cc1	–	–	-24.7%
Cn1c(=O)c(-c2cc(=O)[nH][nH]2)c(O)c2ccccc21	–	3.26 µM [rising, single point]	7.46%
Cc1csc(SCC(=O)c2c(N)n(C)c(=O)n(C)c2=O)n1	4.11 µM [rising, partial curve]	–	-3.23%

Part of the list above, in markdown.

| SMILES | AC50 [1] | AC50 [2] | cell number change |
| --- | --- | --- | --- |
| Cc1cc(S(=O)(=O)N(Cc2ccccc2Cl)c2ccc3c(c2)CCC3)ccc1-n1cnnn1 | 32.6 µM [rising, single point] | – | 35.5% |
| O=C(CCC1CCCN(C(=O)c2cccc(F)c2)C1)N1CCN(c2ccccn2)CC1 (stereo not drawn) | – | 0.13 µM [rising, full curve, poor fit] | -14.8% |
| COc1ccc(C(=O)c2coc3ccc(O)cc23)cc1 | 9.2 µM [falling, partial curve] | – | -36.1% |
| Cc1ccc(-n2c3nc(=O)[nH]c(=O)c-3cc3cc([N+](=O)[O-])ccc32)cc1 | – | – | -24.7% |

Remaining list, next part

SMILES	AC50 [1]	AC50 [2]	cell number change
Cc1ccc(C)c(S(=O)(=O)C(C#N)c2nc3ccccc3nc2N2CCOCC2)c1 (stereo not drawn)	–	–	-1.42%
CN(C)c1ccc(NC(=O)CCCc2ccccc2)cc1	29.1 µM [rising, single point]	29.1 µM [rising, single point]	132%
O=C(CCNNC(=O)c1ccncc1)NCc1ccccc1	0.13 µM [rising, full curve, poor fit]	–	–
COc1ccc(CC(=O)N(Cc2ccccc2)c2cccc(C)c2)cc1OC	–	–	1.45%
Cn1c(SCC(=O)N2CCOCC2)nnc1-c1ccncc1	–	6.51 µM [falling, single point]	5.22%
CCCCCC(=O)Nc1ccc2ccccc2c1	4.61 µM [rising, single point]	2.06 µM [rising, partial curve]	21.3%
O=C(Nc1ccc(-c2nc3cccnc3s2)cc1)c1ccc(Cl)nc1	0.116 µM [rising, full curve, poor fit]	–	33.6%
Cc1ccc(NC(=O)CSc2ncnc3ccccc23)cc1S(=O)(=O)N1CCCCC1	–	29.1 µM [falling, partial curve]	-6.79%
COc1ccc(C(=O)Nc2sc(C)c(-c3ccccc3)c2C#N)cc1OC	1.3 µM [rising, full curve, poor fit]	–	26.6%
CC(=O)N1c2ccccc2C(CBr)=CC1(C)C	–	0.103 µM [falling, full curve, poor fit]	5.68%
Cc1ccc(O)c(NC(=O)CSc2n[nH]c(C)c2[N+](=O)[O-])c1	0.731 µM [falling, full curve, poor fit]	–	-22%
COc1ccc(C(=O)Cn2nc(CNc3ccc(Br)cc3)[n+]3c2CCCCC3)cc1	18.4 µM [falling, single point]	29.1 µM [falling, single point]	-63.5%
CCOc1ccc2ccccc2c1CNc1nnnn1CC	–	–	-42.6%
CNC(=S)N/N=C/c1cccc(OCc2ccccc2F)c1	–	29.1 µM [rising, single point]	0.977%
Cc1c(NC(=S)NC(=O)c2cc3ccccc3o2)c(=O)n(-c2ccccc2)n1C	–	2.06 µM [rising, partial curve]	-6.19%
O=C(N/N=C\c1ccc(Cl)s1)C1COc2ccccc2O1 (stereo not drawn)	2.06 µM [rising, full curve, poor fit]	–	29.1%
COc1cc(/C=N/n2nnnc2N)ccc1OC(C)=O	–	2.59 µM [falling, partial curve, poor fit]	-11.1%
CCN(CC)Cc1cc(CCNC(=O)c2ccc(Cl)cc2)ccc1O	–	6.51 µM [falling, single point]	5.35%
CCOc1ncccc1C(=O)NNC(=O)c1csc(N2CCOCC2)n1	0.00461 µM [rising, full curve, poor fit]	6.51 µM [rising, partial curve]	3.08%
CCn1c(COc2ccccc2)nnc1SCC(=O)Nc1cc(OC)ccc1OC	–	32.6 µM [falling, single point]	–

SMILES	AC50 [1]	AC50 [2]	cell number change
O=[N+]([O-])c1ccc(-c2ccc(/C=N/Nc3nc(NCc4ccccc4)nc(N4CCOCC4)n3)o2)cc1	–	29.1 µM [falling, single point]	–
C=CCNC(=S)Nc1cccc(N)c1	3.66 µM [falling, partial curve]	6.51 µM [falling, single point]	16.6%
O=C(CS(=O)(=O)Cc1ccccc1)Nc1ccccc1Cl	29.1 µM [rising, single point]	–	54.4%
CC1CCCN(C(=O)c2cc3c(=O)n4ccccc4nc3s2)C1 (stereo not drawn)	–	–	-22.9%
Cc1ccc(CCSc2ccc(C(C)C)cc2)cn1	13 µM [falling, partial curve, poor fit]	13 µM [falling, partial curve, poor fit]	-33.1%
COC(=O)c1ccc(NC(=O)COc2ccc(C3C(C#N)=C(N)Oc4c3ccc3ccccc43)cc2OC)cc1 (stereo not drawn)	–	2.91 µM [rising, partial curve]	-10.9%
N#CCCN(C(=O)COC(=O)c1ccc(S(=O)(=O)Nc2ccccc2)cc1)c1ccccc1	13 µM [rising, partial curve, poor fit]	–	31.2%
O=C(OC1CCCCC1)c1ccc(NC(=O)C2CCCCC2)cc1	–	5.8 µM [rising, partial curve]	5.94%
Cc1ccccc1CNC(=O)C(=O)NCCC1CCCCN1S(=O)(=O)c1cccs1 (stereo not drawn)	23.1 µM [falling, single point]	–	-49.5%
S=C(NCCN1CCOCC1)Nc1ccccc1Cl	–	5.8 µM [rising, single point]	-12.6%
Clc1c(-c2nnc3n2CCC3)sc2ccccc12	20.6 µM [rising, partial curve]	16.4 µM [rising, partial curve]	109%
c1ccc(CNc2nc(-c3ccccc3)nc3ccccc23)cc1	–	–	-16.4%
O=C(NC1CCCCCC1)c1ccc(Cl)c(S(=O)(=O)N2CCOCC2)c1	–	–	13.2%
Cc1ccc(C(=O)N/N=C\C=C\c2ccccc2[N+](=O)[O-])cn1	–	29.1 µM [falling, single point]	-15.5%
CCOC(=O)C1=C(COC(=O)/C=C/c2ccc(Cl)cc2)NC(=O)NC1C (stereo not drawn)	8.2 µM [rising, partial curve, poor fit]	29.1 µM [rising, single point]	42.5%
Cc1ccc(C(=O)Nc2nc(C(C)(C)C)cs2)s1	–	5.17 µM [rising, single point]	6.37%
O=C(N/C(=C\c1ccc(F)cc1)C(=O)N1CCCCCC1)c1ccccc1	6.51 µM [rising, single point]	6.51 µM [rising, single point]	–
COc1ccc(Nc2ccc([N+](=O)[O-])cc2[N+](=O)[O-])cc1	–	29.1 µM [falling, single point]	-36%
Cc1cccnc1NC(=O)c1cccc(S(=O)(=O)N2CCCc3ccccc32)c1	–	23.1 µM [falling, partial curve, poor fit]	-24.9%
